Data source: PubChem BioAssay AID1671195 (Yale University, 2021)

- Aim: 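Genes whose knockdown alters LDL uptake in liver cancer cells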 (primary screen)
- Cells: human Huh7 hepatoma cells
- Reagents: siRNA pool against human genes, 18 nM
- Time to read-out: about 2 to 2.5 days of knockdown, then 8 h LDL uptake
- Challenge: DiI-labelled LDL at 30 µg/ml for 8 h, in lipoprotein-deficient serum medium
- Measured: 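Fluorescent LDL signal imaged in cells, scaled to the plate median, robust z-score for each replicate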
- Reading the numbers: robust z-score: higher = more LDL uptake after knockdown
- Rule for the call: 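a gene counts as active if at least two replicate z-scores exceed ±2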
Here is one part, drawn at random, of about 22,000 reagents. About 1,510 of them (6.9%) were called active. 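Active includes knockdowns raising or lowering LDL uptake; positive z-scores mean more uptake, negative mean less.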

gene | robust z-score, replicate 1 | robust z-score, replicate 2 | robust z-score, replicate 3 | call
MSLN (mesothelin) | -0.817 | -1.25 | -1.29 | inactive
IFIT3 (interferon induced protein with tetratricopeptide repeats 3) | 1.85 | 1.45 | 1.98 | inactive
FAM184B (family with sequence similarity 184 member B) | -0.462 | 1.78 | 2.18 | inactive
PSMA8 (proteasome 20S subunit alpha 8) | 0.477 | -0.341 | -0.0755 | inactive
ELP5 (elongator acetyltransferase complex subunit 5) | -0.0887 | 1.59 | -1.22 | inactive
CHCHD6 (coiled-coil-helix-coiled-coil-helix domain containing 6) | 1.17 | 1.71 | 0.327 | inactive
LCN15 (lipocalin 15) | -1.44 | -1.04 | -1.32 | inactive
BCL7B (BAF chromatin remodeling complex subunit BCL7B) | -0.512 | -0.812 | 0.132 | inactive
LOC391035 (retired record) | -0.676 | -0.389 | -0.412 | inactive
ETFDH (electron transfer flavoprotein dehydrogenase) | -1 | -2.02 | -0.666 | inactive
MYH3 (myosin heavy chain 3) | -0.79 | -0.929 | -0.869 | inactive
MYL7 (myosin light chain 7) | -0.0557 | 0.0482 | -0.159 | inactive
LOC200292 (retired record) | -1.05 | -0.549 | -0.534 | inactive
CAMK1G (calcium/calmodulin dependent protein kinase IG) | -0.179 | 1.17 | 1.46 | inactive
RBM22P1 (RNA binding motif protein 22 pseudogene 1) | 0.869 | 0.712 | 0.579 | inactive
LOC389602 | 0.248 | 0.484 | 0.538 | inactive
LOC399933 (retired record) | -0.718 | -1.05 | -1.39 | inactive
MSN (moesin) | 1.26 | 1.47 | 1.56 | inactive
SNHG29 (small nucleolar RNA host gene 29) | -1.27 | -1.33 | -1.22 | inactive
LRP3 (LDL receptor related protein 3) | 0.344 | 0.415 | 0.323 | inactive
ROPN1 (rhophilin associated tail protein 1) | -0.144 | -0.884 | -0.679 | inactive
FAM43A (family with sequence similarity 43 member A) | 1.5 | 0.461 | 2.02 | inactive
NCBP2 (nuclear cap binding protein subunit 2) | -1.26 | -1.31 | -0.787 | inactive
ESRP2 (epithelial splicing regulatory protein 2) | -0.712 | -0.44 | -0.0879 | inactive
PIK3C2B | 0.528 | 0.802 | 0.324 | inactive
TBCEL (tubulin folding cofactor E like) | -0.064 | -0.18 | 0.111 | inactive
ERAS (ES cell expressed Ras) | -1.23 | -0.524 | 0.335 | inactive
KRT75 (keratin 75) | 2.49 | 1.51 | 2.56 | active
LOC388929 (retired record) | 1.13 | 1.6 | 1.37 | inactive
RNF180 (ring finger protein 180) | 0.981 | 1.69 | 1.12 | inactive
GPR82 (G protein-coupled receptor 82) | 0.495 | -1 | -0.0115 | inactive
SRGN (serglycin) | -0.955 | 1.26 | -0.776 | inactive
HMCN2 (hemicentin 2) | 0.202 | 0.618 | 0.475 | inactive
PREB (prolactin regulatory element binding) | -2.02 | -2.47 | -2.46 | active
TMEM63A (transmembrane protein 63A) | 0.686 | 0.532 | -0.794 | inactive
PDE5A (phosphodiesterase 5A) | -1.97 | -1.61 | -1.66 | inactive
EBP (EBP cholestenol delta-isomerase) | 0.832 | 1.91 | 0.745 | inactive
PHGDH (phosphoglycerate dehydrogenase) | -0.289 | 0.38 | 0.0242 | inactive

Continued; the last 7 above are carried over.
gene | robust z-score, replicate 1 | robust z-score, replicate 2 | robust z-score, replicate 3 | call
SRGN (serglycin) | -0.955 | 1.26 | -0.776 | inactive
HMCN2 (hemicentin 2) | 0.202 | 0.618 | 0.475 | inactive
PREB (prolactin regulatory element binding) | -2.02 | -2.47 | -2.46 | active
TMEM63A (transmembrane protein 63A) | 0.686 | 0.532 | -0.794 | inactive
PDE5A (phosphodiesterase 5A) | -1.97 | -1.61 | -1.66 | inactive
EBP (EBP cholestenol delta-isomerase) | 0.832 | 1.91 | 0.745 | inactive
PHGDH (phosphoglycerate dehydrogenase) | -0.289 | 0.38 | 0.0242 | inactive
ZNF491 (zinc finger protein 491) | -0.464 | -0.917 | -0.618 | inactive
CLDN3 (claudin 3) | 1.18 | 0.74 | 0.795 | inactive
GRM7 (glutamate metabotropic receptor 7) | -0.172 | -1.19 | -0.59 | inactive
CDIPT (CDP-diacylglycerol--inositol 3-phosphatidyltransferase) | 0.516 | -0.0433 | 0.455 | inactive
TMCO5B (transmembrane and coiled-coil domains 5B (pseudogene)) | -0.473 | -0.863 | -0.626 | inactive
TPTE2 | 0.298 | 1.08 | 1.07 | inactive
S100A1 (S100 calcium binding protein A1) | 0.2 | 0.0686 | 0.244 | inactive
PLEKHH2 (pleckstrin homology, MyTH4 and FERM domain containing H2) | -0.544 | -1.88 | -0.494 | inactive
TF (transferrin) | 0.425 | 0.283 | 0.0537 | inactive
OR5P2 (olfactory receptor family 5 subfamily P member 2) | 1.1 | 0.865 | 0.37 | inactive
LOC388746 (retired record) | 0.964 | 0.484 | 0.827 | inactive
OCLM (retired record) | 1.9 | 2.32 | 0.951 | inactive
CACHD1 (cache domain containing 1) | 0.999 | 0.805 | 2.74 | inactive
GLRX5 (glutaredoxin 5) | 1.04 | 1.36 | 0.617 | inactive
HECTD2 (HECT domain E3 ubiquitin protein ligase 2) | -0.958 | -0.561 | -0.0267 | inactive
AHRR (aryl hydrocarbon receptor repressor) | -0.619 | -0.449 | -0.23 | inactive
DACT2 (dishevelled binding antagonist of beta catenin 2) | 0.621 | -0.383 | -0.294 | inactive
ADGRE3 (adhesion G protein-coupled receptor E3) | 0.478 | 0.144 | -0.3 | inactive
PLSCR3 (phospholipid scramblase 3) | 0.943 | 1.4 | 1.33 | inactive
MAP1A (microtubule associated protein 1A) | -0.121 | -0.702 | -1.29 | inactive
PLIN2 (perilipin 2) | 0.944 | 1.18 | 1.28 | inactive
C1orf216 (chromosome 1 open reading frame 216) | -0.625 | -0.68 | 0.0509 | inactive
FAM185A (family with sequence similarity 185 member A) | -0.97 | -0.739 | -0.491 | inactive
SUN2 (Sad1 and UNC84 domain containing 2) | 0.435 | -0.0888 | -1.22 | inactive
TRIB1 (tribbles pseudokinase 1) | -0.392 | -0.364 | 0.0641 | inactive
SEC24A (SEC24 homolog A, COPII component) | -0.384 | 0.565 | -1.36 | inactive
MSANTD1 (Myb/SANT DNA binding domain containing 1) | -0.708 | -0.828 | -0.359 | inactive
NDST3 (N-deacetylase and N-sulfotransferase 3) | -0.576 | -0.674 | -0.189 | inactive
SCO2 (synthesis of cytochrome C oxidase 2) | 0.784 | -0.265 | -0.125 | inactive
DNAJC5G (DnaJ heat shock protein family (Hsp40) member C5 gamma) | 0.246 | -0.0773 | -0.0679 | inactive
